Measurements taken from doi:10.1101/2020.05.20.106567.
Like-named read-outs stand apart in the source and are kept apart here. No constants are given. Whether binding was seen depends on the method and setting. In cells and extracts the contact can be indirect. Some entries that bind do so weakly or less than the wild type. For some of these results: Sequences can lack the tags named with a protein.

Chains of the proteins cited; added tags and fusions are not shown. Lines headed by an entry give the natural chain unless they say otherwise; changes in a name come on top. A line that says so, or that is headed by a name, gives the form on record, which may keep a tag or linker. Residues count along the entry.
UniProt P49790: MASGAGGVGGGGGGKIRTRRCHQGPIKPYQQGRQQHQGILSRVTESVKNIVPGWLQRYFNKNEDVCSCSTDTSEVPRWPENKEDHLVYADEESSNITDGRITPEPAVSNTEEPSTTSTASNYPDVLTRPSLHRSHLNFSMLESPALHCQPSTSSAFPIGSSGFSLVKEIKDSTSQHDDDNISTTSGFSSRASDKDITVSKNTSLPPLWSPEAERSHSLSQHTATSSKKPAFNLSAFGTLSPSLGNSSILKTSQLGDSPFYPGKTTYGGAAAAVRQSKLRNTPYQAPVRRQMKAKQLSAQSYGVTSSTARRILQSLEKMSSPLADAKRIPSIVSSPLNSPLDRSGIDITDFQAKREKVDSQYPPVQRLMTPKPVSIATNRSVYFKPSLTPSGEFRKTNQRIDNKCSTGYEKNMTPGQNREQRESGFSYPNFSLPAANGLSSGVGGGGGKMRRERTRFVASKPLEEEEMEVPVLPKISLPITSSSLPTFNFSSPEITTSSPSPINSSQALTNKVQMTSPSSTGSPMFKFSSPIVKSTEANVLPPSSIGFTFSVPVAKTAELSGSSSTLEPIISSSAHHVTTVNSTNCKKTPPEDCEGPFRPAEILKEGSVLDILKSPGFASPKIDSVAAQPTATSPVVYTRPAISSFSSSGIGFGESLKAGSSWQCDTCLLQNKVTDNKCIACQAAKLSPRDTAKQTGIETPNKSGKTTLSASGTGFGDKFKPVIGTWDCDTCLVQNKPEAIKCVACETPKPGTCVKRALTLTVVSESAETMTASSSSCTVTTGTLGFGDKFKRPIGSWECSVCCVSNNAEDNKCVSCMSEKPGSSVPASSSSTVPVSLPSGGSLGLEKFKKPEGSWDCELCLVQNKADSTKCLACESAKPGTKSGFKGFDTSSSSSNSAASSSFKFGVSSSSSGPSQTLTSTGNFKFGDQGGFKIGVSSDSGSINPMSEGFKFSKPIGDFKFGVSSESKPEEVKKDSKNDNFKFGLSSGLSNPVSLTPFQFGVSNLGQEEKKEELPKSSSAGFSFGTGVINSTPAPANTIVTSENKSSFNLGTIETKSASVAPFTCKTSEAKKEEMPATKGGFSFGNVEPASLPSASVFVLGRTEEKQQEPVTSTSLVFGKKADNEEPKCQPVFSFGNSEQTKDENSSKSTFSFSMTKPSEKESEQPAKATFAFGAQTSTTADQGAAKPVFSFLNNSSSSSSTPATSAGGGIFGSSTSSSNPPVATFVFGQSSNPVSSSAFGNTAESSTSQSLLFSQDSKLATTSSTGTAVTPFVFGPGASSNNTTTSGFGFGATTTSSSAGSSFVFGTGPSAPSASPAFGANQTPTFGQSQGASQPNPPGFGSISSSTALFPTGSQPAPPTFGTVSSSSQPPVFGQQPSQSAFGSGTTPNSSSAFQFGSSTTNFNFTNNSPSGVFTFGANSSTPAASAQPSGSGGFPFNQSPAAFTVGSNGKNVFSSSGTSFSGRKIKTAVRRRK
GST-Nup153-N (N-terminal part of Nup153, residues 2-610, fused to GST): residues 2-610 of P49790
UniProt O14777: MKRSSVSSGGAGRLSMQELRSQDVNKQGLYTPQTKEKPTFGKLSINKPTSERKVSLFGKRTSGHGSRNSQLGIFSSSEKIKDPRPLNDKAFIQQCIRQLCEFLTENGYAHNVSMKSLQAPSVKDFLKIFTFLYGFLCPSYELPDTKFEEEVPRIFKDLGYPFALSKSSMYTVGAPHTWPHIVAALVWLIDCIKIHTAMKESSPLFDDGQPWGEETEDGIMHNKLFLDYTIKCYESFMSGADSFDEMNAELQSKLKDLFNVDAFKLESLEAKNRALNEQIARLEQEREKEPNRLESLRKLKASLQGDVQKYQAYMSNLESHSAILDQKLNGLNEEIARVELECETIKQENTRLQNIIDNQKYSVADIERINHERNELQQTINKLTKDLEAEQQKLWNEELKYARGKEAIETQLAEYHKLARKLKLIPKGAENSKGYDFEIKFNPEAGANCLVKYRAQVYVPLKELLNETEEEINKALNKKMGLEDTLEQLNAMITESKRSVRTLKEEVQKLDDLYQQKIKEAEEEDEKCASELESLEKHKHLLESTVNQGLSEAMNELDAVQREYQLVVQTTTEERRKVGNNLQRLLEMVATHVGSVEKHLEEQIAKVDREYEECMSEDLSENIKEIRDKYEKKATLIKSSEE

Assays:
[1] = target: GST-Nup153-N (N-terminal part of Nup153, residues 2-610, fused to GST) (human) (UniProt P49790); assay: pull-down
[2] = target: Nup153 (endogenous) (human (endogenous in HeLa)) (UniProt P49790); assay: proximity ligation
[3] = target: Nup153 (endogenous) (human (endogenous in HeLa)) (UniProt P49790); assay: proximity ligation; remark: listed apart in the source

## FLAG-Mad1 residues 540-718 (from UniProt Q9Y6D9 540-718) (domain or fragment)
[1]
  binding: binds

## FLAG-Mad1 residues 1-539 (from UniProt Q9Y6D9 1-539) (domain or fragment)
[1]
  binding: binds

## FLAG-Mad1 residues 552-718 (lacking the MIM domain) (from UniProt Q9Y6D9 552-718) (domain or fragment)
[1]
  binding: binds

## FLAG-Mad1 residues 241-539 (from UniProt Q9Y6D9 241-539) (domain or fragment)
[1]
  binding: no binding

## FLAG-Mad1 residues 1-120 (from UniProt Q9Y6D9 1-120) (domain or fragment)
[1]
  binding: no binding

## outer kinetochore protein Hec1 (endogenous) (from UniProt O14777 1-642)
[2]
  binding: no binding

## FLAG-Mad1 residues 241-596 (from UniProt Q9Y6D9 241-596) (domain or fragment)
[1]
  binding: binds

## FLAG-Mad1-N596 (N-terminal domain of Mad1, residues 1-596) (from UniProt Q9Y6D9 1-596) (domain or fragment)
[1]
  binding: binds

## FLAG-Mad1 residues 1-240 (from UniProt Q9Y6D9 1-240) (domain or fragment)
[1]
  binding: binds

## FLAG-Mad1 residues 121-240 (from UniProt Q9Y6D9 121-240) (domain or fragment)
[1]
  binding: binds

B1: full-length FLAG-Mad1 (protein, UniProt Q9Y6D9 1-718)
chain: MEDLGENTMVLSTLRSLNNFISQRVEGGSGLDISTSAPGSLQMQYQQSMQLEERAEQIRSKSHLIQVEREKMQMELSHKRARVELERAASTSARNYEREVDRNQELLTRIRQLQEREAGAEEKMQEQLERNRQCQQNLDAASKRLREKEDSLAQAGETINALKGRISELQWSVMDQEMRVKRLESEKQELQEQLDLQHKKCQEANQKIQELQASQEARADHEQQIKDLEQKLSLQEQDAAIVKNMKSELVRLPRLERELKQLREESAHLREMRETNGLLQEELEGLQRKLGRQEKMQETLVGLELENERLLAKLQSWERLDQTMGLSIRTPEDLSRFVVELQQRELALKDKNSAVTSSARGLEKARQQLQEELRQVSGQLLEERKKRETHEALARRLQKRVLLLTKERDGMRAILGSYDSELTPAEYSPQLTRRMREAEDMVQKVHSHSAEMEAQLSQALEELGGQKQRADMLEMELKMLKSQSSSAEQSFLFSREEADTLRLKVEELEGERSRLEEEKRMLEAQLERRALQGDYDQSRTKVLHMSLNPTSVARQRLREDHSQLQAECERLRGLLRAMERGGTVPADLEAAAASLPSSKEVAELKKQVESAELKNQRLKEVFQTKIQEFRKACYTLTGYQIDITTENQYRLTSLYAEHPGDCLIFKATSPSGSKMQLLETEFSHTVGELIEVHLRRQDSIPAFLSSLTLELFSRQTVA
[1]
  binding: binds

B2: Mad1 (endogenous) (protein, UniProt Q9Y6D9 1-718)
chain: B1 chain
[3]
  binding: binds

B3: FLAG-Mad1 C-terminal domain (CTD, residues 597-718) (domain or fragment, UniProt Q9Y6D9 597-718)
chain: SSKEVAELKKQVESAELKNQRLKEVFQTKIQEFRKACYTLTGYQIDITTENQYRLTSLYAEHPGDCLIFKATSPSGSKMQLLETEFSHTVGELIEVHLRRQDSIPAFLSSLTLELFSRQTVA
[1]
  binding: no binding
